Assay results taken from PubChem BioAssay AID2685 (National Center for Advancing Translational Sciences (NCATS), 2010).
In all, about 320,000 compounds went through this assay and about 2,100 (0.66%) were called active. The shares of active, inactive and inconclusive entries below differ from those in the screen. Calls follow the shape of the dose curve; as a rule, active = well fitted inhibition curve with a large enough effect in the signal ratio, with a control signal flat (not every such curve was filed as active); inconclusive = small, poorly fitted or top-dose-only effect, or effect the other way, or a change in a side signal; inactive = flat fitted curve, though single readings scatter; the % refers to the signal ratio. Potencies of inconclusive entries are doubtful fits and often do not repeat.
% is scaled to controls: 0 for no effect and ±100 for the full control effect; potency is read from the fitted curve at half-maximal effect.

Test: qHTS Assay for Lipid Storage Modulators in Drosophila S3 Cells
Settings: BODIPY lipid droplet fluorescence, 18-24 h, cells fed with added oleic acid; lipid storage change, negative = inhibition: at 46.1 µM (top of the series) unless noted
Procedure, shortened: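 Laser-scanning cytometry quantifies lipid droplet accumulation (500–530 nm total intensity; droplet/cell object ratio) in oleic acid-fed (400 uM added) Drosophila S3 cells treated with a concentration series. 20 uM Triacsin C defined 100% inhibition.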
With `O=C(c1ccccc1)N1CCN(C(=O)c2ccc([N+](=O)[O-])cc2)CC1` the Potency was inconclusive: 5.8 µM [falling, single point].
For `O=S(=O)(Nn1cnnc1)c1ccc2ccccc2c1`, the lipid storage change, negative = inhibition was “inactive”.
In the case of `O=C(CNC(=O)c1ccco1)Nc1ccc(F)cc1`, the lipid storage change, negative = inhibition was inconclusive: 107%.
In the case of `COCCC(=O)N1CCC(Oc2ccc(C(=O)NCc3ncc(C)[nH]3)cc2)CC1`, the lipid storage change, negative = inhibition was inconclusive: -4.83%.
In the case of `CNC(=S)N/N=C1\C(=O)c2cccc3cccc1c23`, the lipid storage change, negative = inhibition was inconclusive: -22%.
For `COc1ccc(NC(=O)c2sc3nc(N4CCCC4)c4c(c3c2N)CC(C)(C)OC4)cc1`, the lipid storage change, negative = inhibition was inconclusive: 38.8%.
For `Cc1cccc(NC(=O)CC2C(=O)NC3CCCCC3N2C(=O)c2ccccc2Cl)c1` (centres undefined), the lipid storage change, negative = inhibition was “inactive”.
For `CC(=O)/C=C1/C(=O)Nc2ccccc21`, the lipid storage change, negative = inhibition was inconclusive: -35.3%.
With `O=C(Nn1cnnc1)c1csc2ccccc12` the Potency was inconclusive: 0.116 µM [falling, full curve, poor fit].
For `CCOC(=O)N1CCN(C(=O)C(=O)NNC(=O)COc2ccc(Cl)c(C)c2)CC1`, the lipid storage change, negative = inhibition was inconclusive: 31.2%.
For `N#CC1=C(N)N(c2ccccc2)C(c2ccco2)C1(C#N)C#N` (centres undefined), the Potency was inconclusive: 18.4 µM [rising, partial curve].
In the case of `COc1ccc(C2=Nn3c(nnc3-c3ccco3)SC2)cc1OC`, the Potency was inconclusive: 14.6 µM [falling, partial curve].
In the case of `COc1ccc(C2=NN(c3nc4ccccc4s3)C(=O)C2)cc1`, the lipid storage change, negative = inhibition was inconclusive: 32.8%.
In the case of `O=C(CSc1nc2ccsc2c(=O)n1-c1ccccc1)N1CCCC1`, the Potency was inconclusive: 10.3 µM [rising, single point].
With `Cc1c(Cl)cccc1NC(=O)CC(C(=O)O)C1CCCO1` (centres undefined) the lipid storage change, negative = inhibition was inconclusive: -4.14%.
For `CC1=CSC2=NC(=O)/C(=C\c3cccn3-c3ccccc3)C(=N)N12`, the lipid storage change, negative = inhibition was inconclusive: 17.6%.
For `O=C(CSc1nc(-c2ccccc2)nc2c1Cc1ccccc1O2)Nc1ccccc1`, the Potency was inconclusive: 0.092 µM [activator, full curve, poor fit].
With `CC1CCN(S(=O)(=O)c2ccc3c(c2)c(=O)c(C(=O)NCc2ccccc2Cl)cn3C)CC1` the lipid storage change, negative = inhibition was inconclusive: 15%.
In the case of `O=C1CCC(=O)N1CN(C(=O)c1ccco1)c1ccccc1`, the Potency was inconclusive: 29.1 µM [falling, single point].
In the case of `CCc1ccc(N2CC(C(=O)Nc3ccccc3F)CC2=O)cc1` (centres undefined), the lipid storage change, negative = inhibition was inconclusive: 20.9%.
With `Cc1cccc(S(=O)(=O)Nc2cccc(-c3cn4ccsc4n3)c2)c1` the lipid storage change, negative = inhibition was inconclusive: -18.2%.
In the case of `Clc1cccc(Cn2ncc3ccccc32)c1`, the lipid storage change, negative = inhibition was inconclusive: 25.3%.
For `Cc1ccccc1NS(=O)(=O)c1ccc(C(=O)NCC(c2ccco2)N2CCCCC2)cc1` (centres undefined), the Potency was inconclusive: 29.1 µM [activator, single point].
With `CC(C)NC(=O)COc1coc(CN2CCN(Cc3ccccc3)CC2)cc1=O` the lipid storage change, negative = inhibition was inconclusive: -4.08%.
For `O=C(Nc1ccc2c(c1)CCC2)c1ncoc1-c1ccccc1F`, the Potency was inconclusive: 23.1 µM [activator, single point].
In the case of `Cc1cc(=O)[nH]c(/N=C(\N)Nc2cccc3ccccc23)n1`, the lipid storage change, negative = inhibition was inconclusive: 5.02%.
In the case of `Cc1ccsc1/C=N/NC(=O)c1cccc(S(=O)(=O)Nc2ccccc2Cl)c1`, the lipid storage change, negative = inhibition was inconclusive: 17.7%.
In the case of `Cc1ccccc1NC(=O)C(C)N1C(=O)c2ccccc2C1=O` (centres undefined), the Potency was inconclusive: 2.59 µM [activator, single point].
For `NC(=O)C1CC(=O)N(c2ccc(OCC(=O)Nc3ccc(Cl)cc3)cc2)C1` (centres undefined), the Potency was inconclusive: 20.6 µM [falling, single point].
In the case of `CC(C(=O)Nc1ccc(Cl)cc1Cl)N1C(=O)NC2(CCCC2)C1=O` (centres undefined), the lipid storage change, negative = inhibition was inconclusive: -47.7%.
In the case of `CCc1nnc(NC(=O)c2cc(S(=O)(=O)N3CCCCC3)ccc2C)s1`, the lipid storage change, negative = inhibition was inconclusive: 21.8%.
In the case of `COc1ccc(C)cc1NC(=O)CN1C(=O)COc2ccc(C)cc21`, the lipid storage change, negative = inhibition was inconclusive: -0.428%.
For `COc1ccc(CCNC(=O)C2CCN(S(=O)(=O)c3ccc(SC)cc3)CC2)cc1`, the lipid storage change, negative = inhibition was inconclusive: -113%.
With `Cc1nc(N)c(C#N)c(-c2ccc3c(c2)OCO3)c1C` the lipid storage change, negative = inhibition was inconclusive: 75.5%.
For `O=C(c1ccc(S(=O)(=O)Nc2ccccc2F)cc1)N1CCN(c2ccccc2O)CC1`, the lipid storage change, negative = inhibition was “inconclusive”.
With `COc1nc(N)nc(N)c1NS(=O)(=O)c1ccc(C)cc1` the Potency was inconclusive: 32.6 µM [activator, partial curve, poor fit].
With `CN1CCN(NS(=O)(=O)c2ccc(Cl)cc2)CC1` the lipid storage change, negative = inhibition was inconclusive: 240%.
With `O=C(Cn1ccc(C(F)(F)F)n1)N/N=C/c1ccc(N2CCOCC2)cc1` the lipid storage change, negative = inhibition was inconclusive: 91.8%.
With `CCOc1cc(CNCc2cccs2)cc(Br)c1OCC` the lipid storage change, negative = inhibition was inconclusive: -16.6%.
With `O=C(CN1CCCC1)NCc1ccccc1` the lipid storage change, negative = inhibition was inconclusive: 22%.
With `O=C(CNC(=O)c1ccco1)NCC(=O)OCc1cccc(Cl)c1` the lipid storage change, negative = inhibition was inconclusive: 4.66%.
For `CC(C)(C)c1ccc(C(=O)Nc2ccc3c(c2)C(=O)NC3=O)cc1`, the Potency was inconclusive: 29.1 µM [activator, single point].
In the case of `CSc1ncccc1C(=O)OCC(=O)N(CC(C)C)C1CCS(=O)(=O)C1` (centres undefined), the Potency was inconclusive: 29.1 µM [activator, partial curve, poor fit].
With `Cc1cc(C(=O)N2CCCC(N3CCN(c4ccc(F)cc4)CC3)C2)c(C)o1` (centres undefined) the Potency was inconclusive: 6.51 µM [activator, partial curve].
For `O=C(O)c1cccc(NN=C2c3ccccc3-c3ccccc32)c1`, the lipid storage change, negative = inhibition was inconclusive: 8.47%.
In the case of `CCc1nnc(NC(=O)c2cc(-c3ccc(C)o3)nc3ccccc23)s1`, the lipid storage change, negative = inhibition was inconclusive: -14.1%.
With `COc1cccc(OCC(O)CN2CCC(Cc3ccccc3)CC2)c1` (centres undefined) the lipid storage change, negative = inhibition was inconclusive: 10.8%.
For `CN(C)c1nc(-c2cccs2)cc(C(F)(F)F)c1C#N`, the lipid storage change, negative = inhibition was inconclusive: -31.7%.
For `O=C(NC1CCCCC1)NC1CCN(S(=O)(=O)c2ccc3c(c2)OCCO3)CC1`, the lipid storage change, negative = inhibition was inconclusive: -5.94%.
For `Cc1nc(Nc2cccc(O)c2)c2c3c(sc2n1)CCC3`, the lipid storage change, negative = inhibition was inconclusive: 18.7%.
With `O=C(Nc1ccc(Br)cn1)c1coc(=O)c(Br)c1` the lipid storage change, negative = inhibition was inconclusive: -9.68%.
In the case of `COc1ccc(NC(=S)NNC(=O)CCn2cc([N+](=O)[O-])cn2)cc1`, the lipid storage change, negative = inhibition was inconclusive: -21.8%.
For `COC(=O)c1ccc(NC(=O)COc2ccc(S(=O)(=O)NC(C)C)cc2)cc1`, the lipid storage change, negative = inhibition was inconclusive: -6.26%.
In the case of `COc1ccc(/C=N/NC(=O)c2ccccc2OC)cc1COc1ccccc1[N+](=O)[O-]`, the Potency was inconclusive: 0.112 µM [falling, full curve, poor fit].
With `C=CCOc1ccc(/C=C/C(=O)OCC(=O)N2CCC(c3ccccc3)=N2)cc1` the Potency was inconclusive: 29.1 µM [activator, single point].
With `CCOCCCNC(=O)CN(Cc1ccc(Cl)cc1)S(C)(=O)=O` the Potency was inconclusive: 5.17 µM [activator, single point].
In the case of `CCCN1C(=O)c2ccccc2NC1c1ccc(Cl)cc1` (centres undefined), the lipid storage change, negative = inhibition was inconclusive: 12.8%.
In the case of `COc1ccc(NC(=O)C(NC(=O)CNC(C)=O)c2ccc(C)cc2)cc1` (centres undefined), the lipid storage change, negative = inhibition was inconclusive: -9.67%.
For `CCCCN1C(=O)C(O)=C(C(C)=O)C1c1ccccc1[N+](=O)[O-]` (centres undefined), the lipid storage change, negative = inhibition was inconclusive: 20.8%.
With `N#C/C(=C\c1cccnc1)C(=O)Nc1ccc(C(=O)O)cc1` the lipid storage change, negative = inhibition was inconclusive: 8.27%.
With `CC1=C(C#N)C(=O)NC(C)(C)C1` the lipid storage change, negative = inhibition was inconclusive: -28.1%.
For `CC(NC(=S)NC1CCCCC1)c1ccc(C(C)(C)C)cc1` (centres undefined), the Potency was inconclusive: 18.4 µM [falling, single point].
For `CCc1ccc(NC(=S)N2CCC(NC(=O)C3CCCCC3)CC2)cc1`, the Potency was inconclusive: 29.1 µM [falling, single point].
In the case of `CCOC(=O)n1c(=O)n(Cc2cccc(C)c2)c2ccccc21`, the Potency was inconclusive: 29.1 µM [activator, single point].
In the case of `CN(CCC#N)C(=O)c1cc2c(Cl)nc3ccccc3c2s1`, the lipid storage change, negative = inhibition was inconclusive: 10.2%.
For `COc1ccc(N(Cc2cc3ccccc3[nH]c2=O)S(=O)(=O)c2ccccc2)cc1`, the lipid storage change, negative = inhibition was inconclusive: 5.33%.
With `O=CN1CCN(C(=O)Cc2ccc([N+](=O)[O-])cc2)CC1` the lipid storage change, negative = inhibition was inconclusive: -10.2%.
With `NC(=O)NC(=O)CSc1nnc(-c2ccc(Cl)cc2)n1CC1CCCO1` (centres undefined) the lipid storage change, negative = inhibition was inconclusive: 17.4%.
With `CN1CCN(C(=O)C2CCN(S(=O)(=O)c3ccc(F)cc3)CC2)CC1` the Potency was inconclusive: 29.1 µM [falling, single point].
In the case of `Cc1cccc(Nc2nc(N)c([N+](=O)[O-])c(NCc3ccco3)n2)c1`, the Potency was inconclusive: 13 µM [activator, partial curve].
In the case of `CCN(Cc1ccncc1)C(=O)CCc1ccccc1`, the lipid storage change, negative = inhibition was inconclusive: -41.7%.
With `O=c1c2ccccc2c2c(O)nc(-c3ccccc3)n2n1Cc1ccccc1` the lipid storage change, negative = inhibition was inconclusive: 52.6%.
With `Cc1ccc(N/N=C2\CS(=O)(=O)N(C)c3ccsc32)cc1` the lipid storage change, negative = inhibition was inconclusive: -95.9%.
For `Nc1c(-c2ccccc2)sc2ccc3ccccc3[n+]12`, the Potency was active: 1.3 µM.
For `O=C(C[n+]1cc(Br)cc(Br)c1)c1cccc([N+](=O)[O-])c1`, the lipid storage change, negative = inhibition was inconclusive: -82.4%.
For `O=C(NCc1ccccc1Cl)C(=O)c1cn(CC(=O)N2CCOCC2)c2ccccc12`, the Potency was inconclusive: 0.58 µM [activator, single point].
With `CCOC(=O)C(CC)/C(C)=N\NC(=O)c1cccc(C)c1` (centres undefined) the lipid storage change, negative = inhibition was inconclusive: -11.6%.
With `COc1cc(Cl)ccc1OCc1cc(C(=O)N(C)Cc2nnc(C)o2)no1` the lipid storage change, negative = inhibition was inconclusive: 69.9%.
In the case of `CC1CC(C)(C)NC(=S)O1` (centres undefined), the lipid storage change, negative = inhibition was inconclusive: -11.3%.
